According to paper PMC11549291:
No constants are given. Whether binding was seen depends on the method and setting. In cells and extracts the contact can be indirect. A yes stands for co-enrichment or nearness to the bait. Other partners may have been found.

Sequences of proteins named here, by UniProt entry; tags and fusion partners are left off.
UniProt Q8CJ19: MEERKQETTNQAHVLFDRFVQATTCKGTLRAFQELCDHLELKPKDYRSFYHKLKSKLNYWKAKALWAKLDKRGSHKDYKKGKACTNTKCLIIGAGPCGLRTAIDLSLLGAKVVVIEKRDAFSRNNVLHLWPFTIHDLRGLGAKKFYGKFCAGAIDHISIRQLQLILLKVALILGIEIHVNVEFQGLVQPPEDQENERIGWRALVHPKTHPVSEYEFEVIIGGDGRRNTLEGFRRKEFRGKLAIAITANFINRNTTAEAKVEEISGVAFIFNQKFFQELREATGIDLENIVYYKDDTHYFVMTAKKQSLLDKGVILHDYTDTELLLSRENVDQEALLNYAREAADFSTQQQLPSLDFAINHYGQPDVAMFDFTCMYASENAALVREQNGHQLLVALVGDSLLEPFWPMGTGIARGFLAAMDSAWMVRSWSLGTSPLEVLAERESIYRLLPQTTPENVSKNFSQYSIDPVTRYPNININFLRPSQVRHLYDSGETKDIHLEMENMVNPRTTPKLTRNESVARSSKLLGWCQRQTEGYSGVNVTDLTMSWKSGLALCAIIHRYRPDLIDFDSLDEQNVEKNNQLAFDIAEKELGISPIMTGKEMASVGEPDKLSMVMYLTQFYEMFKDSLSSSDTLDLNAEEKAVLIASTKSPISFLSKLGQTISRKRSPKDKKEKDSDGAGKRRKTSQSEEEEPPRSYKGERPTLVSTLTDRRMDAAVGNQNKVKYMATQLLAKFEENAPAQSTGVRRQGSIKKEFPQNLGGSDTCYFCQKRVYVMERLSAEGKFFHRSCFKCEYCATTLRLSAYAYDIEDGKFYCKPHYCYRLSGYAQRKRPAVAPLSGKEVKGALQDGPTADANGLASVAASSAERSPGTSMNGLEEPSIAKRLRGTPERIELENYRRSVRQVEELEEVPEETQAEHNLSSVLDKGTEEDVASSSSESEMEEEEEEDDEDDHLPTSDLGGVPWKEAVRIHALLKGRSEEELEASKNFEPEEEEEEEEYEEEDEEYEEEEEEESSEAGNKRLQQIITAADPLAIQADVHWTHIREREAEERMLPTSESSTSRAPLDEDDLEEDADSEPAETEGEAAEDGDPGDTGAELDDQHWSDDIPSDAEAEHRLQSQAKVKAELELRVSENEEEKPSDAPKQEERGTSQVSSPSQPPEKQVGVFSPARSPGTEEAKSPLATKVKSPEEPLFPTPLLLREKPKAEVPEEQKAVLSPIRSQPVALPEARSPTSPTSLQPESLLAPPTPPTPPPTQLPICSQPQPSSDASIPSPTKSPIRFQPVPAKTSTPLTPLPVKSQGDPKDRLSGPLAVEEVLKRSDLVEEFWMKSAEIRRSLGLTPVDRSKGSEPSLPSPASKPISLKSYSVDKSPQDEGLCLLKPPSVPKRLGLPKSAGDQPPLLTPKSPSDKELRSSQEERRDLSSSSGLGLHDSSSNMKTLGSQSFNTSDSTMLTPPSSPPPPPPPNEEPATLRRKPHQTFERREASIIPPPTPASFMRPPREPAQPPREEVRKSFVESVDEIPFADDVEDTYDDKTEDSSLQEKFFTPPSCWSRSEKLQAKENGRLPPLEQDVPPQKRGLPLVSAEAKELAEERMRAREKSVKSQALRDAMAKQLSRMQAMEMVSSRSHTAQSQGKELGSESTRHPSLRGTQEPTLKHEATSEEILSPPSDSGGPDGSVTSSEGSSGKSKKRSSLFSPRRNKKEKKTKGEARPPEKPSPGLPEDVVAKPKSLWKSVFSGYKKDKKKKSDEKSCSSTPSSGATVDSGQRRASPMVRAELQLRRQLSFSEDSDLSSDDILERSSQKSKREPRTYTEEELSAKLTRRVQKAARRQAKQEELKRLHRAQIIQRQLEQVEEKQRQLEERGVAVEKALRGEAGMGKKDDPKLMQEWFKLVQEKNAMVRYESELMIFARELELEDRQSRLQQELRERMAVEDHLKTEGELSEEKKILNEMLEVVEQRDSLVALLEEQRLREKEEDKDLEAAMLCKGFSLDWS

Target: T1, CHK1 (mouse zygotes) (mouse (endogenous in mouse zygotes)) (UniProt O35280)
T1 sequence: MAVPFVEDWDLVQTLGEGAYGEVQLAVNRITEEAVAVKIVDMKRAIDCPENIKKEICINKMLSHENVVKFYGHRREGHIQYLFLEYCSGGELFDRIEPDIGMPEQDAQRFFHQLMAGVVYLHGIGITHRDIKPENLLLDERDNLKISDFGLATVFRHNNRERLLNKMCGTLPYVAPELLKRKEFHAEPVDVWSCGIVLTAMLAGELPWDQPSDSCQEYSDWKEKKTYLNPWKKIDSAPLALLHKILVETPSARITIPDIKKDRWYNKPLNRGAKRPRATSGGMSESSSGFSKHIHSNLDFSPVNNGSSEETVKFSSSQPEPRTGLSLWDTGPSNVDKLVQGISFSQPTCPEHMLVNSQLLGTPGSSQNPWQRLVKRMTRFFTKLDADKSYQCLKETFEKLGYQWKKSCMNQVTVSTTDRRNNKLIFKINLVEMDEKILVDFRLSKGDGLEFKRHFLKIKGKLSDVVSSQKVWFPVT
Experiment: affinity purification with mass spectrometry; lysates of 6000 mouse zygotes pooled; IP with 1 ug CHK1 antibody overnight at 4 C, Protein A/G magnetic beads; proteins of an IgG control subtracted; gel band analysed by mass spectrometry

“MICAL3 (mouse zygotes) (from UniProt Q8CJ19 1-1993)” was tested, and the binding was “binds”.
